{"source": "PubChem BioAssay AID686943, Drosophila RNAi Screening Center, 2013", "screen": "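Knockdowns that increase or decrease active ERK after insulin receptor stimulation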 (primary screen)", "cell system": "Drosophila S2R+ haemocyte-like cells expressing YFP-tagged ERK (Rolled)", "knock-down reagent": "long dsRNA against Drosophila genes", "challenge": "insulin stimulation versus unstimulated cells; dose and duration not given", "read-out": "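Antibody staining for doubly phosphorylated ERK divided by ERK-YFP signal, as plate z-scores, in insulin-treated and untreated cells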", "direction": "replicate 1, z-score of dpERK with insulin and replicate 2, z-score of dpERK with insulin: higher = more active ERK per ERK-YFP after insulin", "note": "In all, the deposit lists about 23,000 reagents; below is an unselected part of those with a known target gene and a result. 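Extra replicates exist only for a retested subset of genes; insulin dose and duration not given; both raised and lowered dpERK matter.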 Names joined by + are all predicted targets of the reagent. Not all columns of the deposit are shown. Not stated in the record: the amount of reagent, the time to read-out."}
{"gene knocked down":"CG12991","amplicon":"DRSC19511","replicate 1, z-score of dpERK with insulin":0.49,"replicate 2, z-score of dpERK with insulin":-0.41}
{"gene knocked down":"Mkp + CG34140","amplicon":"DRSC08585","replicate 1, z-score of dpERK with insulin":0.66,"replicate 2, z-score of dpERK with insulin":-0.01}
{"gene knocked down":"stg","amplicon":"DRSC17071","replicate 1, z-score of dpERK with insulin":-1.3,"replicate 2, z-score of dpERK with insulin":-1.65}
{"gene knocked down":"dnt","amplicon":"DRSC03522","replicate 1, z-score of dpERK with insulin":0.65,"replicate 2, z-score of dpERK with insulin":0.3}
{"gene knocked down":"CG18542 + CG32939","amplicon":"DRSC15342","replicate 1, z-score of dpERK with insulin":-0.2,"replicate 2, z-score of dpERK with insulin":0.92}
{"gene knocked down":"Ubc87F","amplicon":"DRSC16513","replicate 1, z-score of dpERK with insulin":2.34,"replicate 2, z-score of dpERK with insulin":0.53}
{"gene knocked down":"Chchd3","amplicon":"DRSC16981","replicate 1, z-score of dpERK with insulin":-0.45,"replicate 2, z-score of dpERK with insulin":-0.04}
{"gene knocked down":"TwdlU","amplicon":"DRSC12224","replicate 1, z-score of dpERK with insulin":0.09,"replicate 2, z-score of dpERK with insulin":0.62}
{"gene knocked down":"Mst77F","amplicon":"DRSC11871","replicate 1, z-score of dpERK with insulin":0.83,"replicate 2, z-score of dpERK with insulin":0.05}
{"gene knocked down":"CG12590","amplicon":"DRSC12216","replicate 1, z-score of dpERK with insulin":0.17,"replicate 2, z-score of dpERK with insulin":0.79}
{"gene knocked down":"CG9205","amplicon":"DRSC08642","replicate 1, z-score of dpERK with insulin":-0.13,"replicate 2, z-score of dpERK with insulin":-0.5}
{"gene knocked down":"AlkB","amplicon":"DRSC19115","replicate 1, z-score of dpERK with insulin":0.46,"replicate 2, z-score of dpERK with insulin":-0.08}
{"gene knocked down":"gammaCOP","amplicon":"DRSC16955","replicate 1, z-score of dpERK with insulin":-0.29,"replicate 2, z-score of dpERK with insulin":0}
{"gene knocked down":"CG31924","amplicon":"DRSC00689","replicate 1, z-score of dpERK with insulin":1.19,"replicate 2, z-score of dpERK with insulin":1.03}
{"gene knocked down":"bt","amplicon":"DRSC17129","replicate 1, z-score of dpERK with insulin":0.63,"replicate 2, z-score of dpERK with insulin":-0.15}
{"gene knocked down":"bt","amplicon":"DRSC17171","replicate 1, z-score of dpERK with insulin":-0.33,"replicate 2, z-score of dpERK with insulin":-0.33}
{"gene knocked down":"CG14635","amplicon":"DRSC17945","replicate 1, z-score of dpERK with insulin":-0.9,"replicate 2, z-score of dpERK with insulin":-0.45}
{"gene knocked down":"CG13223","amplicon":"DRSC06344","replicate 1, z-score of dpERK with insulin":0.38,"replicate 2, z-score of dpERK with insulin":0.09}
{"gene knocked down":"Shab","amplicon":"DRSC08013","replicate 1, z-score of dpERK with insulin":-0.14,"replicate 2, z-score of dpERK with insulin":-0.13}
{"gene knocked down":"Shab","amplicon":"DRSC08643","replicate 1, z-score of dpERK with insulin":0.82,"replicate 2, z-score of dpERK with insulin":1.41}
{"gene knocked down":"Shab","amplicon":"DRSC08699","replicate 1, z-score of dpERK with insulin":-1.27,"replicate 2, z-score of dpERK with insulin":-0.38}
{"gene knocked down":"RecQ5","amplicon":"DRSC11266","replicate 1, z-score of dpERK with insulin":0.29,"replicate 2, z-score of dpERK with insulin":0.99}
{"gene knocked down":"L (retired record)","amplicon":"DRSC05966","replicate 1, z-score of dpERK with insulin":0.04,"replicate 2, z-score of dpERK with insulin":-0.6}
{"gene knocked down":"L (retired record)","amplicon":"DRSC05967","replicate 1, z-score of dpERK with insulin":-0.81,"replicate 2, z-score of dpERK with insulin":-1.27}
{"gene knocked down":"CG31370","amplicon":"DRSC21453","replicate 1, z-score of dpERK with insulin":-0.55,"replicate 2, z-score of dpERK with insulin":0.5}
{"gene knocked down":"inc","amplicon":"DRSC17954","replicate 1, z-score of dpERK with insulin":0.19,"replicate 2, z-score of dpERK with insulin":1.02}
{"gene knocked down":"inc","amplicon":"DRSC18512","replicate 1, z-score of dpERK with insulin":0.43,"replicate 2, z-score of dpERK with insulin":1.03}

Just “replicate 2, z-score of dpERK with insulin”, for 6 of the entries above:
Shab [DRSC08643]: 1.41
Shab [DRSC08699]: -0.38
RecQ5 [DRSC11266]: 0.99
L (retired record) [DRSC05966]: -0.6
L (retired record) [DRSC05967]: -1.27
CG31370 [DRSC21453]: 0.5

Further reagents follow.
{"gene knocked down":"Strica","amplicon":"DRSC04920","replicate 1, z-score of dpERK with insulin":0.43,"replicate 2, z-score of dpERK with insulin":0.95}
{"gene knocked down":"apn","amplicon":"DRSC15124","replicate 1, z-score of dpERK with insulin":-0.13,"replicate 2, z-score of dpERK with insulin":0.27}
{"gene knocked down":"RanBPM","amplicon":"DRSC06079","replicate 1, z-score of dpERK with insulin":0.16,"replicate 2, z-score of dpERK with insulin":-0.29}
{"gene knocked down":"Dlish","amplicon":"DRSC06016","replicate 1, z-score of dpERK with insulin":0.61,"replicate 2, z-score of dpERK with insulin":0.99}
{"gene knocked down":"CG32086","amplicon":"DRSC10586","replicate 1, z-score of dpERK with insulin":0.01,"replicate 2, z-score of dpERK with insulin":0.1}
{"gene knocked down":"CG42565","amplicon":"DRSC04154","replicate 1, z-score of dpERK with insulin":-0.21,"replicate 2, z-score of dpERK with insulin":0.14}
{"gene knocked down":"Fancm","amplicon":"DRSC16348","replicate 1, z-score of dpERK with insulin":-0.02,"replicate 2, z-score of dpERK with insulin":0.9}
{"gene knocked down":"CG13403","amplicon":"DRSC19535","replicate 1, z-score of dpERK with insulin":0.2,"replicate 2, z-score of dpERK with insulin":0.15}
{"gene knocked down":"CG18870","amplicon":"DRSC04313","replicate 1, z-score of dpERK with insulin":-0.47,"replicate 2, z-score of dpERK with insulin":1.1}
{"gene knocked down":"CG5612","amplicon":"DRSC15844","replicate 1, z-score of dpERK with insulin":-0.94,"replicate 2, z-score of dpERK with insulin":0.27}
{"gene knocked down":"CG13919","amplicon":"DRSC08388","replicate 1, z-score of dpERK with insulin":-0.64,"replicate 2, z-score of dpERK with insulin":0.1}
{"gene knocked down":"CG30065","amplicon":"DRSC05420","replicate 1, z-score of dpERK with insulin":-0.49,"replicate 2, z-score of dpERK with insulin":-0.05}
{"gene knocked down":"CG4631","amplicon":"DRSC02766","replicate 1, z-score of dpERK with insulin":0.33,"replicate 2, z-score of dpERK with insulin":-0.07}
{"gene knocked down":"CG4631","amplicon":"DRSC22194","replicate 1, z-score of dpERK with insulin":0.2,"replicate 2, z-score of dpERK with insulin":1.22}
